Source: PMC8384837
Residue numbers refer to the chain shown, from its start. The list shows a part of the results. For some assays here: At the low end of the ranking the order means little.

Assays:
Conditions in all cases: yeast three-hybrid, YBZ-1, SC-Leu-His + 0.5 mM 3-AT, 4 days
[1] = target: T1, PUM1 PUF domain R3-FRV C935F + Q939V (Homo sapiens) (UniProt Q14671)
T1 sequence: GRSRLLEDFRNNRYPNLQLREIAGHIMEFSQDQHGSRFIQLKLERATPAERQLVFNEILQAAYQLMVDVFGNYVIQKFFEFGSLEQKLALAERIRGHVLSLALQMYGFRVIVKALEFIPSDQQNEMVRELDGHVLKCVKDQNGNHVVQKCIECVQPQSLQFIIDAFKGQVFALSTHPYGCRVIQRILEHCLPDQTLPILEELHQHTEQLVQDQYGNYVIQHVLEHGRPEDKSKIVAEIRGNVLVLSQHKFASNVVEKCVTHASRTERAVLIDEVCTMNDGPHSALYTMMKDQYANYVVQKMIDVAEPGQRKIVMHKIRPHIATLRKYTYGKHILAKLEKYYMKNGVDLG

[2] = target: T2, PUM1 PUF domain R3-FRW C935F + Q939W (UniProt Q14671)
T2 sequence: T1 sequence with V112W

[3] = target: T3, PUM1 PUF domain R3-FSG C935F + R936S + Q939G (UniProt Q14671)
T3 sequence: T1 sequence with R109S, V112G

[4] = target: T4, PUM1 PUF domain R3-FSK C935F + R936S + Q939K (UniProt Q14671)
T4 sequence: T1 sequence with R109S, V112K

[5] = target: T5, PUM1 PUF domain R3-FSN C935F + R936S + Q939N (UniProt Q14671)
T5 sequence: T1 sequence with R109S, V112N

[6] = target: T6, PUM1 PUF domain R3-FSR C935F + R936S + Q939R (UniProt Q14671)
T6 sequence: T1 sequence with R109S, V112R

[7] = target: T7, PUM1 PUF domain R3-GHP C935G + R936H + Q939P (Homo sapiens) (UniProt Q14671)
T7 sequence: T1 sequence with F108G, R109H, V112P

[8] = target: T8, PUM1 PUF domain R3-GIR C935G + R936I + Q939R (UniProt Q14671)
T8 sequence: T1 sequence with F108G, R109I, V112R

[9] = target: T9, PUM1 PUF domain R3-GRR C935G + Q939R (Homo sapiens) (UniProt Q14671)
T9 sequence: T1 sequence with F108G, V112R

[10] = target: T10, PUM1 PUF domain R3-GVE C935G + R936V + Q939E (Homo sapiens) (UniProt Q14671)
T10 sequence: T1 sequence with F108G, R109V, V112E

[11] = target: T11, PUM1 PUF domain R3-HRR C935H + Q939R (UniProt Q14671)
T11 sequence: T1 sequence with F108H, V112R

[12] = target: T12, PUM1 PUF domain R3-HRS C935H + Q939S (Homo sapiens) (UniProt Q14671)
T12 sequence: T1 sequence with F108H, V112S

[13] = target: T13, PUM1 PUF domain R3-IFL C935I + R936F + Q939L (Homo sapiens) (UniProt Q14671)
T13 sequence: T1 sequence with F108I, R109F, V112L

[14] = target: T14, PUM1 PUF domain R3-IRG C935I + Q939G (Homo sapiens) (UniProt Q14671)
T14 sequence: T1 sequence with F108I, V112G

[15] = target: T15, PUM1 PUF domain R3-KPG C935K + R936P + Q939G (Homo sapiens) (UniProt Q14671)
T15 sequence: T1 sequence with F108K, R109P, V112G

[16] = target: T16, PUM1 PUF domain R3-KPS C935K + R936P + Q939S (Homo sapiens) (UniProt Q14671)
T16 sequence: T1 sequence with F108K, R109P, V112S

[17] = target: T17, PUM1 PUF domain R3-LCR C935L + R936C + Q939R (UniProt Q14671)
T17 sequence: T1 sequence with F108L, R109C, V112R

[18] = target: T18, PUM1 PUF domain R3-LFA C935L + R936F + Q939A (Homo sapiens) (UniProt Q14671)
T18 sequence: T1 sequence with F108L, R109F, V112A

[19] = target: T19, PUM1 PUF domain R3-LFT C935L + R936F + Q939T (Homo sapiens) (UniProt Q14671)
T19 sequence: T1 sequence with F108L, R109F, V112T

[20] = target: T20, PUM1 PUF domain R3-LHY C935L + R936H + Q939Y (Homo sapiens) (UniProt Q14671)
T20 sequence: T1 sequence with F108L, R109H, V112Y

GGCUAGAACUAGUGGAUCCCCCGGCGCCCGGCGGCUCGAGCCCGGGUAAGUGUAAAUAGUCUGCAUGCCGCCGGGCGCCAUGCCUGCAGGUCGACUCUAGAAAACAUG
binding signal (log2 enrichment (interaction score)) [1]: -2 | binding signal (log2 enrichment (interaction score)) [2]: < -8 | binding signal (log2 enrichment (interaction score)) [3]: < -10.6 | binding signal (log2 enrichment (interaction score)) [4]: -4.28 | binding signal (log2 enrichment (interaction score)) [5]: < -6.8 | binding signal (log2 enrichment (interaction score)) [6]: -2.84 | binding signal (log2 enrichment (interaction score)) [7]: 1.22 | binding signal (log2 enrichment (interaction score)) [8]: -4.93 | binding signal (log2 enrichment (interaction score)) [9]: -1.72 | binding signal (log2 enrichment (interaction score)) [10]: -2.79 | binding signal (log2 enrichment (interaction score)) [11]: -3.56 | binding signal (log2 enrichment (interaction score)) [12]: -2.37 | binding signal (log2 enrichment (interaction score)) [13]: 1.4 | binding signal (log2 enrichment (interaction score)) [14]: -1.36 | binding signal (log2 enrichment (interaction score)) [15]: -0.64 | binding signal (log2 enrichment (interaction score)) [16]: 0.41 | binding signal (log2 enrichment (interaction score)) [17]: -2.51 | binding signal (log2 enrichment (interaction score)) [18]: -2.71 | binding signal (log2 enrichment (interaction score)) [19]: -0.04 | binding signal (log2 enrichment (interaction score)) [20]: -2.2
